# Experimental data: publication PMC8384837
# Numbering of substitutions follows the chain as printed. Some of the results follow. For some of these results: At the low end of the ranking, values are background and their order means little.
# What was measured:
# Conditions in all cases: yeast three-hybrid, YBZ-1, SC-Leu-His + 0.5 mM 3-AT, 4 days
# [1] = target: T1, PUM1 PUF domain R5-RKQ C1007R + R1008K (Homo sapiens) (UniProt Q14671)
# T1 sequence: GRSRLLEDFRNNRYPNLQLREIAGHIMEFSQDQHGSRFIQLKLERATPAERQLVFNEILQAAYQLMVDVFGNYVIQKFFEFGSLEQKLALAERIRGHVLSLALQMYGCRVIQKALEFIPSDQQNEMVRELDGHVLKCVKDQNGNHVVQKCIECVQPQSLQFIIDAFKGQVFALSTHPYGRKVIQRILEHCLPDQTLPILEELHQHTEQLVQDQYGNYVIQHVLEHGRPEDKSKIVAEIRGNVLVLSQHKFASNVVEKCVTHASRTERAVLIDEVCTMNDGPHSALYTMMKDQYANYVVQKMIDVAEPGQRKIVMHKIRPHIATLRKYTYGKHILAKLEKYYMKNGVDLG
# [2] = target: T2, PUM1 PUF domain R5-RKS C1007R + R1008K + Q1011S (Homo sapiens) (UniProt Q14671)
# T2 sequence: T1 sequence with Q184S
# [3] = target: T3, PUM1 PUF domain R5-RKV C1007R + R1008K + Q1011V (UniProt Q14671)
# T3 sequence: T1 sequence with Q184V
# [4] = target: T4, PUM1 PUF domain R5-RLT C1007R + R1008L + Q1011T (UniProt Q14671)
# T4 sequence: T1 sequence with K181L, Q184T
# [5] = target: T5, PUM1 PUF domain R5-RMG C1007R + R1008M + Q1011G (UniProt Q14671)
# T5 sequence: T1 sequence with K181M, Q184G
# [6] = target: T6, PUM1 PUF domain R5-RMR C1007R + R1008M + Q1011R (UniProt Q14671)
# T6 sequence: T1 sequence with K181M, Q184R
# [7] = target: T7, PUM1 PUF domain R5-RMT C1007R + R1008M + Q1011T (UniProt Q14671)
# T7 sequence: T1 sequence with K181M, Q184T
# [8] = target: T8, PUM1 PUF domain R5-RMV C1007R + R1008M + Q1011V (UniProt Q14671)
# T8 sequence: T1 sequence with K181M, Q184V
# [9] = target: T9, PUM1 PUF domain R5-RMW C1007R + R1008M + Q1011W (UniProt Q14671)
# T9 sequence: T1 sequence with K181M, Q184W
# [10] = target: T10, PUM1 PUF domain R5-RNE C1007R + R1008N + Q1011E (Homo sapiens) (UniProt Q14671)
# T10 sequence: T1 sequence with K181N, Q184E
# [11] = target: T11, PUM1 PUF domain R5-RNL C1007R + R1008N + Q1011L (Homo sapiens) (UniProt Q14671)
# T11 sequence: T1 sequence with K181N, Q184L
# [12] = target: T12, PUM1 PUF domain R5-RNS C1007R + R1008N + Q1011S (Homo sapiens) (UniProt Q14671)
# T12 sequence: T1 sequence with K181N, Q184S
# [13] = target: T13, PUM1 PUF domain R5-RNT C1007R + R1008N + Q1011T (Homo sapiens) (UniProt Q14671)
# T13 sequence: T1 sequence with K181N, Q184T
# [14] = target: T14, PUM1 PUF domain R5-RNV C1007R + R1008N + Q1011V (UniProt Q14671)
# T14 sequence: T1 sequence with K181N, Q184V
# [15] = target: T15, PUM1 PUF domain R5-RPM C1007R + R1008P + Q1011M (UniProt Q14671)
# T15 sequence: T1 sequence with K181P, Q184M
# [16] = target: T16, PUM1 PUF domain R5-RQE C1007R + R1008Q + Q1011E (UniProt Q14671)
# T16 sequence: T1 sequence with K181Q, Q184E
# [17] = target: T17, PUM1 PUF domain R5-RQH C1007R + R1008Q + Q1011H (UniProt Q14671)
# T17 sequence: T1 sequence with K181Q, Q184H
# [18] = target: T18, PUM1 PUF domain R5-RQM C1007R + R1008Q + Q1011M (UniProt Q14671)
# T18 sequence: T1 sequence with K181Q, Q184M
# [19] = target: T19, PUM1 PUF domain R5-RQV C1007R + R1008Q + Q1011V (Homo sapiens) (UniProt Q14671)
# T19 sequence: T1 sequence with K181Q, Q184V
# [20] = target: T20, PUM1 PUF domain R5-RRI C1007R + Q1011I (Homo sapiens) (UniProt Q14671)
# T20 sequence: T1 sequence with K181R, Q184I
# [21] = target: T21, PUM1 PUF domain R5-RRY C1007R + Q1011Y (UniProt Q14671)
# T21 sequence: T1 sequence with K181R, Q184Y
# [22] = target: T22, PUM1 PUF domain R5-RSD C1007R + R1008S + Q1011D (UniProt Q14671)
# T22 sequence: T1 sequence with K181S, Q184D
# [23] = target: T23, PUM1 PUF domain R5-RSG C1007R + R1008S + Q1011G (UniProt Q14671)
# T23 sequence: T1 sequence with K181S, Q184G
# [24] = target: T24, PUM1 PUF domain R5-RSI C1007R + R1008S + Q1011I (UniProt Q14671)
# T24 sequence: T1 sequence with K181S, Q184I
# [25] = target: T25, PUM1 PUF domain R5-RSP C1007R + R1008S + Q1011P (UniProt Q14671)
# T25 sequence: T1 sequence with K181S, Q184P
# [26] = target: T26, PUM1 PUF domain R5-RSR C1007R + R1008S + Q1011R (Homo sapiens) (UniProt Q14671)
# T26 sequence: T1 sequence with K181S, Q184R
# [27] = target: T27, PUM1 PUF domain R5-RSS C1007R + R1008S + Q1011S (Homo sapiens) (UniProt Q14671)
# T27 sequence: T1 sequence with K181S, Q184S
# [28] = target: T28, PUM1 PUF domain R5-RTL C1007R + R1008T + Q1011L (UniProt Q14671)
# T28 sequence: T1 sequence with K181T, Q184L
# [29] = target: T29, PUM1 PUF domain R5-RTR C1007R + R1008T + Q1011R (UniProt Q14671)
# T29 sequence: T1 sequence with K181T, Q184R
# [30] = target: T30, PUM1 PUF domain R5-SGK C1007S + R1008G + Q1011K (UniProt Q14671)
# T30 sequence: T1 sequence with R180S, K181G, Q184K
# [31] = target: T31, PUM1 PUF domain R5-SGR C1007S + R1008G + Q1011R (Homo sapiens) (UniProt Q14671)
# T31 sequence: T1 sequence with R180S, K181G, Q184R
# [32] = target: T32, PUM1 PUF domain R5-SRL C1007S + Q1011L (Homo sapiens) (UniProt Q14671)
# T32 sequence: T1 sequence with R180S, K181R, Q184L
# [33] = target: T33, PUM1 PUF domain R5-SRT C1007S + Q1011T (Homo sapiens) (UniProt Q14671)
# T33 sequence: T1 sequence with R180S, K181R, Q184T
# [34] = target: T34, PUM1 PUF domain R5-SSR C1007S + R1008S + Q1011R (UniProt Q14671)
# T34 sequence: T1 sequence with R180S, K181S, Q184R
# [35] = target: T35, PUM1 PUF domain R5-TNG C1007T + R1008N + Q1011G (UniProt Q14671)
# T35 sequence: T1 sequence with R180T, K181N, Q184G
# [36] = target: T36, PUM1 PUF domain R5-TPR C1007T + R1008P + Q1011R (UniProt Q14671)
# T36 sequence: T1 sequence with R180T, K181P, Q184R
# [37] = target: T37, PUM1 PUF domain R5-TRL C1007T + Q1011L (UniProt Q14671)
# T37 sequence: T1 sequence with R180T, K181R, Q184L
# [38] = target: T38, PUM1 PUF domain R5-TRY C1007T + Q1011Y (Homo sapiens) (UniProt Q14671)
# T38 sequence: T1 sequence with R180T, K181R, Q184Y
# [39] = target: T39, PUM1 PUF domain R5-TTR C1007T + R1008T + Q1011R (Homo sapiens) (UniProt Q14671)
# T39 sequence: T1 sequence with R180T, K181T, Q184R
# [40] = target: T40, PUM1 PUF domain R5-VHL C1007V + R1008H + Q1011L (Homo sapiens) (UniProt Q14671)
# T40 sequence: T1 sequence with R180V, K181H, Q184L
# [41] = target: T41, PUM1 PUF domain R5-VRV C1007V + Q1011V (UniProt Q14671)
# T41 sequence: T1 sequence with R180V, K181R, Q184V
# [42] = target: T42, PUM1 PUF domain R5-VYF C1007V + R1008Y + Q1011F (UniProt Q14671)
# T42 sequence: T1 sequence with R180V, K181Y, Q184F
# [43] = target: T43, PUM1 PUF domain R5-WSR C1007W + R1008S + Q1011R (UniProt Q14671)
# T43 sequence: T1 sequence with R180W, K181S, Q184R
sequence,measurement,setting,value
GGCUAGAACUAGUGGAUCCCCCGGCGCCCGGCGGCUCGAGCCCGGGUAAGUGUGAAUAGUCUGCAUGCCGCCGGGCGCCAUGCCUGCAGGUCGACUCUAGAAAACAUG,binding signal (log2 enrichment (interaction score)),[1],0.72
same,binding signal (log2 enrichment (interaction score)),[2],0.4
same,binding signal (log2 enrichment (interaction score)),[3],-3.69
same,binding signal (log2 enrichment (interaction score)),[4],-6.03
same,binding signal (log2 enrichment (interaction score)),[5],-3.25
same,binding signal (log2 enrichment (interaction score)),[6],-6.04
same,binding signal (log2 enrichment (interaction score)),[7],-5.4
same,binding signal (log2 enrichment (interaction score)),[8],-4.75
same,binding signal (log2 enrichment (interaction score)),[9],-3.1
same,binding signal (log2 enrichment (interaction score)),[10],0.01
same,binding signal (log2 enrichment (interaction score)),[11],-1.99
same,binding signal (log2 enrichment (interaction score)),[12],0.34
same,binding signal (log2 enrichment (interaction score)),[13],-1.13
same,binding signal (log2 enrichment (interaction score)),[14],-3.76
same,binding signal (log2 enrichment (interaction score)),[15],-3.89
same,binding signal (log2 enrichment (interaction score)),[16],-3.64
same,binding signal (log2 enrichment (interaction score)),[17],-2.62
same,binding signal (log2 enrichment (interaction score)),[18],< -9.81
same,binding signal (log2 enrichment (interaction score)),[19],-0.19
same,binding signal (log2 enrichment (interaction score)),[20],0.07
same,binding signal (log2 enrichment (interaction score)),[21],-3.11
same,binding signal (log2 enrichment (interaction score)),[22],-6.25
same,binding signal (log2 enrichment (interaction score)),[23],-2.19
same,binding signal (log2 enrichment (interaction score)),[24],-3.12
same,binding signal (log2 enrichment (interaction score)),[25],-3.75
same,binding signal (log2 enrichment (interaction score)),[26],0.1
same,binding signal (log2 enrichment (interaction score)),[27],-1.74
same,binding signal (log2 enrichment (interaction score)),[28],-4.81
same,binding signal (log2 enrichment (interaction score)),[29],-3.78
same,binding signal (log2 enrichment (interaction score)),[30],-4.17
same,binding signal (log2 enrichment (interaction score)),[31],-0.56
same,binding signal (log2 enrichment (interaction score)),[32],-0.05
same,binding signal (log2 enrichment (interaction score)),[33],-1.01
same,binding signal (log2 enrichment (interaction score)),[34],-3.59
same,binding signal (log2 enrichment (interaction score)),[35],-5.24
same,binding signal (log2 enrichment (interaction score)),[36],< -7.06
same,binding signal (log2 enrichment (interaction score)),[37],-2.44
same,binding signal (log2 enrichment (interaction score)),[38],-0.72
same,binding signal (log2 enrichment (interaction score)),[39],-2.03
same,binding signal (log2 enrichment (interaction score)),[40],-1.34
same,binding signal (log2 enrichment (interaction score)),[41],-4.35
same,binding signal (log2 enrichment (interaction score)),[42],-5.45
same,binding signal (log2 enrichment (interaction score)),[43],< -9.99

# Three records drawn at random from the list so far:
sequence,measurement,setting,value
GGCUAGAACUAGUGGAUCCCCCGGCGCCCGGCGGCUCGAGCCCGGGUAAGUGUGAAUAGUCUGCAUGCCGCCGGGCGCCAUGCCUGCAGGUCGACUCUAGAAAACAUG,binding signal (log2 enrichment (interaction score)),[31],-0.56
same,binding signal (log2 enrichment (interaction score)),[9],-3.1
same,binding signal (log2 enrichment (interaction score)),[25],-3.75
